Library screening results

Chains of the proteins cited; added tags and fusions are not shown.
UniProt E9BF75, entry or part of it: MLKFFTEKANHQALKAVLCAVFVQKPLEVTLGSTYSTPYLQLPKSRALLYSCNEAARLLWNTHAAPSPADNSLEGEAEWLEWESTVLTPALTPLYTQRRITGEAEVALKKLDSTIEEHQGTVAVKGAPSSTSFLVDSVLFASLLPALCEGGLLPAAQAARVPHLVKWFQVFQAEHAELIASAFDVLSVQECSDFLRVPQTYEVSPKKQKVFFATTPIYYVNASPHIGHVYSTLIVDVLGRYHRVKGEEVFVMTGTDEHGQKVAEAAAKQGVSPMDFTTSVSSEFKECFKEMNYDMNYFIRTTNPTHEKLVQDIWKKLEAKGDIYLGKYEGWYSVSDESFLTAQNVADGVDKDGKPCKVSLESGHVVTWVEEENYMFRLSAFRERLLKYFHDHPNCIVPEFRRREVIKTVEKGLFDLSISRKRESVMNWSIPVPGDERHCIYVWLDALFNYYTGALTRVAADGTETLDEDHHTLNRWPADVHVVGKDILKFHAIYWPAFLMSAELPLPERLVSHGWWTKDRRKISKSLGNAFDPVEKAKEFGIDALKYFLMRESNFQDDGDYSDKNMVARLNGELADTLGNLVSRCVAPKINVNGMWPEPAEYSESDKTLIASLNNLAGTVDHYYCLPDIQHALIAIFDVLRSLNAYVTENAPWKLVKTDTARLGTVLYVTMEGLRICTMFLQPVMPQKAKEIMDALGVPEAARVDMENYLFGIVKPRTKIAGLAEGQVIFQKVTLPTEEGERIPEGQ

Mtb heat-shock: 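Assay on Mycobacterium tuberculosis, filed only as a heat shock assay from Cornell; the read-out is not stated. The concentration is filed as 10 mM, unlikely as a test dose, so the dose is not known. Direction is inferred from retests: higher values go with stronger inhibition. Size under these conditions: about 69,000 compounds, about 930 of them at 50% or above in at least one test.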
Mtb growth Cornell: 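Whole-cell assay for inhibitors of Mycobacterium tuberculosis growth, labelled Cornell in the record; the read-out is not stated. The concentration is filed as 10 mM, unlikely as a test dose, so the dose is not known. Higher means stronger inhibition (inferred from two other growth screens of the library). About 53,000 compounds were tested under these conditions; 1.7% (about 900) showed 50% or more at least once.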
LdMetRS: 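Primary screen of methionyl-tRNA synthetase; the read-out is not stated. Target: Methionyl-tRNA synthetase (putative), Leishmania donovani (UniProt E9BF75). The test concentration is not given. The values are filed as inhibition. About 68,000 compounds were tested under these conditions; 0.035% (about 24) showed 50% or more at least once.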

Results are percentages, as filed. The controls that fix the scale are not given in the record; negative values are as filed. Compounds were drawn at random from those tested, without regard to their results. A dash means the value is not listed here; it may have been measured.

{"compound": "O=C(NCCC(O)c1cccs1)c1ccco1", "stereo": "stereo not drawn", "Mtb heat-shock": 28.03, "Mtb growth Cornell": -49.56, "LdMetRS": 9.42}
{"compound": "Cc1nnc([C@@]23CCO[C@@H]2CCN(Cc2cccc4ccccc24)C3)o1", "LdMetRS": 2.933}
{"compound": "CC(C)C(=O)N1CCC(c2nc3ccccn3c2NC(C)(C)C)CC1", "Mtb heat-shock": 10.3, "Mtb growth Cornell": 44.44, "LdMetRS": 12.81}
{"compound": "CCc1cnc(N2CC[C@@H]3CN(C(=O)c4ccco4)CCO[C@@H]3C2)nc1", "LdMetRS": 5.19}
{"compound": "Cc1cc(N(C)CC2COc3ccccc3O2)nc(N)n1", "stereo": "stereo not drawn", "Mtb heat-shock": 1.625, "Mtb growth Cornell": 18.45, "LdMetRS": 15.5}
{"compound": "COc1ccc(CC(C)(O)CNC(=O)Cc2ccc(F)cc2)cc1", "stereo": "stereo not drawn", "Mtb heat-shock": 17.26, "Mtb growth Cornell": -12.75, "LdMetRS": 5.072}
{"compound": "CNC(=O)c1ccc2c(c1)C1(CCN(CC3CC3)CC1)C(=O)N2", "LdMetRS": 19.8}
{"compound": "Cc1ccc(C(=O)NCCn2nc(-n3cncn3)ccc2=O)c(C)c1", "Mtb heat-shock": -8.356, "Mtb growth Cornell": -19.13, "LdMetRS": 8.943}
{"compound": "[H][C@@]12CCN(Cc3sccc3C)[C@]1([H])CC[C@@H](C(=O)N1CCCO1)O2", "Mtb heat-shock": -16.44, "Mtb growth Cornell": 3.196}
{"compound": "CCc1nc(CN2CCCC(Cn3nc(C)nc3C)C2)no1", "stereo": "stereo not drawn", "Mtb heat-shock": -3.08, "Mtb growth Cornell": -3.337, "LdMetRS": 22.22}
{"compound": "[H][C@@]12CCC(=O)N(CCN)[C@]1([H])CCN(Cc1ccc3occc3c1)C2", "Mtb heat-shock": -7.459, "Mtb growth Cornell": 19.93}
{"compound": "CN1CCO[C@@H]2CN(C(=O)Cc3cccs3)CC[C@@H]2C1", "LdMetRS": 3.618}
{"compound": "CCC(Nc1nnnn1-c1ccccc1)C(=O)NCc1ccsc1", "stereo": "stereo not drawn", "Mtb heat-shock": 28.88, "Mtb growth Cornell": -28.63, "LdMetRS": 5.797}
{"compound": "Cc1cccc(Cn2cc(C)c(N)n2)c1", "Mtb heat-shock": 2.524, "Mtb growth Cornell": -8.045, "LdMetRS": 7.297}
{"compound": "COC(=O)N1CCC(Nc2cccc(F)c2C(C)=O)CC1", "Mtb heat-shock": 5.265, "Mtb growth Cornell": 17.99, "LdMetRS": -1.928}
{"compound": "CNC(=O)C1CCN(C(=O)CCn2cccn2)CC1", "Mtb heat-shock": 7.103, "Mtb growth Cornell": -7.733, "LdMetRS": 5.397}
{"compound": "O=c1oc(-c2ccccc2)nn1CN1CCC(N2CCCCC2)CC1", "Mtb heat-shock": -8.637, "LdMetRS": 21.12}
{"compound": "COc1ccc(Cl)cc1CN(CC(N)=O)C(C)C", "Mtb heat-shock": 9.915, "Mtb growth Cornell": -0.5896, "LdMetRS": 0.2793}
{"compound": "CN1CCN(C)C2(CCN(Cc3ccc(C4CCCCO4)o3)CC2)C1", "stereo": "stereo not drawn", "Mtb heat-shock": -4.317, "LdMetRS": 10.96}
{"compound": "CC(C)COC(C)C(=O)N1CCCC1", "stereo": "stereo not drawn", "Mtb heat-shock": 10.01, "Mtb growth Cornell": 24.35, "LdMetRS": -0.7634}
{"compound": "COCC(=O)N1CCC(C(=O)N(C)C(C)c2ccon2)CC1", "stereo": "stereo not drawn", "Mtb heat-shock": -8.194, "Mtb growth Cornell": 15.17, "LdMetRS": 18.75}
{"compound": "C=C(C)COc1cccc(CN(CC)Cc2noc(C)n2)c1", "Mtb heat-shock": -8.326, "Mtb growth Cornell": 16.06, "LdMetRS": -11.24}

For reference, 2 entries once more:

| Compound | Mtb heat-shock | Mtb growth Cornell | LdMetRS |
|---|---|---|---|
| `COCC(=O)N1CCC(C(=O)N(C)C(C)c2ccon2)CC1` (stereo not drawn) | -8.194 | 15.17 | 18.75 |
| `CN1CCN(C)C2(CCN(Cc3ccc(C4CCCCO4)o3)CC2)C1` (stereo not drawn) | -4.317 | - | 10.96 |

Source: ChEMBL document CHEMBL3988442, “University of Dundee, Small-Polar-MMV Screening Library” (2021).